The IC50 is the point on the concentration scale where inhibition reaches its midpoint.

In the assay the test system is HCT-116. Kind of assay: Antiproliferative activity against human HCT-116 cells assessed as inhibition of cell growth measured after 48 hrs by CCK8 method. In kind it is functional, cell-based. To be noted: HCT-116, 48 h. In general terms: Tetrazolium dyes change colour on reduction, which living cells bring about.

`COc1cc2c(c(OC)c1OC)-c1ccc(OC)c(=O)cc1[C@@H](NC(C)=O)CC2` [COLCHICINE]: the IC50 worked out at 39 nM.

(Values after ChEMBL document CHEMBL5518189, “Design, synthesis and biological evaluation of 1,2,3-triazole benzothiazole derivatives as tubulin polymerization inhibitors with potent anti-esophageal cancer activities” (Eur J Med Chem, 2024).)
